## Small-molecule microarray binding calls

From ROBIN, a set of small-molecule microarray screens (doi:10.1002/anie.202211358).

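The test is a small-molecule microarray: each compound is printed twice on a reactive slide, and binding shows as fluorescence of the labelled oligonucleotide after washing. The data file lists only calls. An earlier report of the laboratory on the PreQ1, TPP and SAM-II riboswitches (doi:10.1038/s41467-019-09493-3) used 1 µM RNA for 2 h and required a mean Z-score above 3 (spot signal-to-noise against the whole library), a score well above that on a control array, and duplicate spots agreeing (coefficient of variation under 100); it then also set aside compounds that hit other targets, which this list keeps. The cut-offs behind this list may differ. A missing hit is not proof of no binding, and a hit is not a measured affinity.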 A compound is marked active if it was called a hit and inactive if it was screened but was not. This is an unselected part of the compounds tested. A target missing from an entry has no call listed here. A dash means that no call is listed here.

Oligonucleotides screened, 5′ to 3′:
SAM-II: SAM-II riboswitch RNA pseudoknot, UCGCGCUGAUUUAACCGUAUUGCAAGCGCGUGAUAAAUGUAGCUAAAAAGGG. About 21,000 compounds screened, about 200 hits.
PreQ1: PreQ1 riboswitch RNA pseudoknot, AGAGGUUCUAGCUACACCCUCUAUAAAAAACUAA. From B. subtilis. About 24,000 compounds screened, about 170 hits.
TPP: TPP riboswitch RNA three-way junction, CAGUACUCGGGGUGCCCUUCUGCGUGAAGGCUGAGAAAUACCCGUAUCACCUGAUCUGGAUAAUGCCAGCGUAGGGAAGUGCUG. About 24,000 compounds screened, about 160 hits.

Compound: CCc1ccc(C2NCCc3[nH]cnc32)nc1 (stereo not shown)
SAM-II: inactive
PreQ1: inactive
TPP: inactive

Compound: CCn1nc(C)c(CN2CCC(Cc3ccc(CO)cc3)C2)c1C (stereo not shown)
SAM-II: inactive
PreQ1: inactive
TPP: inactive

Compound: CCN(CC)Cc1cnc2c(C(=O)Nc3cccc(CO)c3)cnn2c1
SAM-II: inactive
PreQ1: inactive
TPP: inactive

Compound: c1ccc(-c2nc3c(c(NCC4OCCc5ccccc54)n2)CCNC3)nc1 (stereo not shown)
SAM-II: inactive
PreQ1: inactive
TPP: inactive

Compound: COc1ccccc1NCc1nc2ccccc2n1CCOc1ccc(C)cc1
SAM-II: inactive
PreQ1: inactive
TPP: inactive

Compound: Cn1c(-c2cccc(Br)c2)cnc1NCc1ccccc1F
SAM-II: inactive
PreQ1: inactive
TPP: inactive

Compound: COc1ccc(CCNc2cc(C)nc3c(-c4ccc(F)cc4)cnn23)cc1OC
PreQ1: inactive
TPP: inactive

Compound: O=C1C=Cc2ccccc2C1=CNS(=O)(=O)c1cccs1
SAM-II: inactive
PreQ1: inactive
TPP: inactive

Compound: CO[C@H]1C[C@@H](O)C12CCN(C(=O)CN1CCC(C(N)=O)CC1)CC2
SAM-II: inactive
PreQ1: inactive
TPP: inactive

Compound: Nc1nc2c(s1)CN(C(=O)c1ccc(C3CCCO3)s1)CC2 (stereo not shown)
SAM-II: inactive
PreQ1: inactive
TPP: inactive

Compound: CCCCC(CC)n1nc(O)cc1N (stereo not shown)
PreQ1: active
TPP: inactive

Compound: O=C1NC(=O)C(=Cc2ccc3ccccc3c2)C(=O)N1
SAM-II: inactive
PreQ1: inactive
TPP: inactive

Compound: Cc1cccc(Nc2nc(-c3cccnc3)cs2)c1
SAM-II: inactive
PreQ1: inactive
TPP: inactive

Compound: Cc1ccc(C2CC(=O)c3cnc(Nc4ccc(F)cc4)nc3C2)cc1 (stereo not shown)
SAM-II: inactive
PreQ1: inactive
TPP: inactive

Compound: COC[C@H](c1ccc(C(F)(F)F)cc1)N1CCN(C2(C)CCN(C(=O)c3c(C)ncnc3C)CC2)C[C@H]1C.O=C(O)C=CC(=O)O
SAM-II: inactive
PreQ1: inactive
TPP: inactive

Compound: COc1ccccc1NC(=O)c1nnn(Cc2ccc(F)cc2Cl)c1N
SAM-II: inactive
PreQ1: inactive
TPP: inactive

Compound: CC(C(=O)N1CCC2(CC1)Nc1ccccc1NC2=O)n1cncn1 (stereo not shown)
SAM-II: inactive
PreQ1: inactive
TPP: inactive

Compound: CCC(CO)Nc1nc(SC)nc(-c2ccc(C(C)(C)C)cc2)c1C#N (stereo not shown)
PreQ1: inactive
TPP: inactive

Compound: c1ccc(/N=N/N2CCOCC2)cc1
SAM-II: inactive
PreQ1: inactive
TPP: inactive

Compound: NC(=O)Cc1ccc2c(c1)[nH]c1ccccc12
SAM-II: inactive
PreQ1: inactive
TPP: inactive

Compound: CCn1cnc2cc(NCc3ccccn3)ccc21
SAM-II: inactive
PreQ1: inactive
TPP: inactive

Compound: Cc1nc2nc(-c3ccc(C(C)(C)C)cc3)nn2c(C)c1CC(=O)N1CCN(CCO)CC1
PreQ1: inactive
TPP: inactive

Compound: COc1ccc(C(=O)c2sc3nc(C)cc(C)c3c2N)cc1OC
SAM-II: inactive
PreQ1: inactive
TPP: inactive

Compound: CCc1nc2nc(C)cc(NCCc3ccc(Cl)cc3)n2n1
SAM-II: inactive
PreQ1: inactive
TPP: inactive

Compound: CN(C)CCNCC1CCOC(C)(C)C1 (stereo not shown)
PreQ1: inactive
TPP: active

Compound: CCOC(=O)C1CCN(c2c(NC3CCN(C(=O)OCC)CC3)c(=O)c2=O)CC1
SAM-II: inactive
PreQ1: inactive
TPP: inactive

Compound: Cc1ccccc1CSCCn1ccnc1-c1cc2n(n1)CCCNC2
SAM-II: inactive
PreQ1: inactive
TPP: inactive

Compound: Cc1cccc(OCCn2c(CO)nc3ccccc32)c1
SAM-II: inactive
PreQ1: inactive
TPP: inactive

Compound: CC(C)Cc1cc(C(=O)N2C[C@@H](CN3CCOCC3)C[C@H](CO)C2)n(C)n1
SAM-II: inactive
PreQ1: inactive
TPP: inactive

Compound: Cc1ccc(-n2nc(C(=O)N(CCO)Cc3ccccc3)nc2-c2ccccc2)cc1
PreQ1: inactive
TPP: inactive

For reference, 3 entries once more:

| Compound | SAM-II | PreQ1 | TPP |
|---|---|---|---|
| `CCN(CC)Cc1cnc2c(C(=O)Nc3cccc(CO)c3)cnn2c1` | inactive | inactive | inactive |
| `NC(=O)Cc1ccc2c(c1)[nH]c1ccccc12` | inactive | inactive | inactive |
| `Cc1ccc(-n2nc(C(=O)N(CCO)Cc3ccccc3)nc2-c2ccccc2)cc1` | - | inactive | inactive |